Results on 1 compound are retold here after paper PMC7610364 (Nature microbiology, 2020).

This assay deals with TbCLK1 C215A. As to the kind of experiment: Recombinant TbCLK1 C215A mutant enzyme activity assay. It is filed as biochemical, Trypanosoma brucei. The following applies: dose-response, result in words.

As to `CN[C@@H]1C[C@H]2O[C@@](C)([C@@H]1OC)n1c3ccccc3c3c4c(c5c6ccccc6n2c5c31)C(=O)NC4` [staurosporine], the “inhibition of TbCLK1 C215A” value is “is inhibited”.
